Measured values published in paper PMC3979232.
Results are given in words; binding and its absence hold for the method and conditions named. In cells and extracts the contact can be indirect. Some entries that bind do so weakly or less than the wild type.

Protein sequences, listed by entry. Tags and fused reporters are not part of them.
UniProt A2AM29: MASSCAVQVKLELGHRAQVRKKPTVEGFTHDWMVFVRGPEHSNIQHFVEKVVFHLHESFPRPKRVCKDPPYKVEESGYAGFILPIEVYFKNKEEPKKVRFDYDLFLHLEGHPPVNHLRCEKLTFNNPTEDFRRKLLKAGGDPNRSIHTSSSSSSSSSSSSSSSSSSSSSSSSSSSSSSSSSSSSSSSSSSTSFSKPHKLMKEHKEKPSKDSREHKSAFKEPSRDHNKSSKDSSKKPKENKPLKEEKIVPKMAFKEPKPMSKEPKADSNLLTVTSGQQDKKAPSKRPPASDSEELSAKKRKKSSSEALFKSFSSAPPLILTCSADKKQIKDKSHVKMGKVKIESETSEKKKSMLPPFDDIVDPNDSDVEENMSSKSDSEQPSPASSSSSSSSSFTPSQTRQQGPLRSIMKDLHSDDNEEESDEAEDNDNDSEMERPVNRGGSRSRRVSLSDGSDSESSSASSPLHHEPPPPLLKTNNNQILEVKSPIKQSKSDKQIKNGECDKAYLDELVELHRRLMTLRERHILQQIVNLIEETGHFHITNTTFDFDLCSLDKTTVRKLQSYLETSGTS
UniProt Q9CQJ4: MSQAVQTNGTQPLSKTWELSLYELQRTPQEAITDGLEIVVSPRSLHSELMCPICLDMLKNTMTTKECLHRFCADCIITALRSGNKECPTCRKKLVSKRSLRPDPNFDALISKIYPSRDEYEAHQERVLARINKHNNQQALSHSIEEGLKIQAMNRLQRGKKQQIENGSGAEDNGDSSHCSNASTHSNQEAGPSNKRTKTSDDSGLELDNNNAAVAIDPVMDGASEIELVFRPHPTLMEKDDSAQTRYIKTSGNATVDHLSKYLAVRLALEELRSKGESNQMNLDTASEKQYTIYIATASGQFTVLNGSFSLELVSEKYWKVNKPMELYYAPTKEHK

Molecular target: Af9 (ALL1-fused gene from chromosome 9 protein), endogenous in mIMCD3 cells (mouse (endogenous in mIMCD3)) (UniProt A2AM29)
Assay: co-IP; whole cell lysates of mIMCD3 cells in RIPA buffer, precleared; immunoprecipitated with anti-Af9 antibody or isotype control IgG overnight at 4°C, protein A/G-agarose; immunoblot with anti-Rnf2 antibody; endogenous proteins

binding: binds
Substance: Rnf2 (RING finger protein 2), endogenous in mIMCD3 cells (from UniProt Q9CQJ4 1-336)
